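Whole-parasite assay of Trypanosoma brucei over 72 hours; the read-out is not stated. Tested at 30 µM. The record gives no direction; compounds that gave an IC50 in retests scored well above the rest, so higher reads as stronger inhibition. Values scatter widely below zero; nearly all retest evidence comes from the higher of the two concentrations used. About 64,000 compounds were tested under these conditions; 1.5% (about 940) showed 50% or more at least once.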

The filed quantity is “Percent Effect” (%).
The record does not define 0% and 100%; most values in the screen are far below 50% and negative numbers occur (in some assays of this library far below -100).
This is an unselected part of the compounds tested.

SMILES | Percent Effect
O=C(O)C(F)(F)F.[H][C@@]12CN(Cc3cccc(F)c3)C[C@]1([H])CN(C(=O)c1cccn1C)C2 | -14.05
O=c1c2cn[nH]c2nc(SCCN2CCOCC2)n1-c1ccccc1 | -24.93
Cc1nc(N2CCN(C(=O)c3ccncc3)CC2)c2c(n1)c(C)nn2C | -19.2
COCC1c2nnn(CC3CC3)c2CCN1C(=O)c1cc(C)[nH]c1C (centres undefined) | -219.5
Cc1nnc(NCC(c2cccs2)N2CCCC2)c(C#N)c1C (centres undefined) | -33.38
COc1cc(C2SC(C)=Nc3c2c(=O)[nH]n3C2CCCC2)ccc1O (centres undefined) | 11.86
CN(C)c1nc(CNC(=O)Nc2cccc([S+](C)[O-])c2)cs1 (centres undefined) | 1.25
CCOCC1CN(C(=O)C2=CCCC2)Cc2cnn(C)c21 (centres undefined) | -8.56
CCN(CC)C(=O)CSc1nc2c(cnn2CCO)c(=O)[nH]1 | -25.84
CC(O)(CNC(=O)c1cccnc1-n1cccn1)c1ccco1 (centres undefined) | -12.51
Cc1nc(C)c(C(=O)N2CCCC(c3cnccn3)C2)s1 (centres undefined) | -16.98
Cc1csc(N2CCN(Cc3ccn(C)c(=O)c3)CC2)n1 | -21.97
CC(C)CCC(=O)N1CCN(C(=O)c2ccc3nccn3c2)CC1 | -14.59
CC(C)(C)n1ncc2c1NC(=O)CC2c1c(F)cccc1F (centres undefined) | -0.6527
Nc1nccnc1C(=O)NC1CCCN(Cc2c(F)cccc2F)C1 (centres undefined) | -36.01
O=C(O)C(F)(F)F.[H][C@]12CCN(Cc3c(C)noc3C)[C@@]1([H])CC[C@H](COCC(C)C)O2 | 31.27
CC(=O)N1CCN(c2cnccn2)CC(CO)C1 (centres undefined) | -4.481
CC(C)n1cc(CN2CCCN(C(=O)c3ccnn3C)CC2)cn1 | -43.19
CCNS(=O)(=O)c1cnccc1N1CCN(CCO)CC1 | -35.05
CC(CCc1ccccc1)CC(=O)NC1CCN(CC(N)=O)CC1 (centres undefined) | -7.476
CC(C)n1nnnc1-c1ccc(NC(=O)CC(F)(F)F)cc1F | -2.141
Cn1ccc(C(=O)NCCOc2ccc(C(C)(C)C)cc2)cc1=O | 5.755
Cc1cccc(CN2CCOCC2c2[nH]ncc2C)n1 (centres undefined) | -19.48
COc1ccccc1CNc1ncnc2c1NC(=O)CN2 | -20.28
[H][C@@]12CCN(C(=O)NCC)C[C@]1([H])CCN(CC(N)=O)C(=O)C2 | -21.5
COCCCC1(CO)CCCN(Cc2ccc(F)c(OC)c2)C1 (centres undefined) | -155.3
CC(C)c1nccn1C1CCCN(C(=O)c2ccsc2)C1 (centres undefined) | 25.78
COc1ccc(CN(C)C2CSCCSC2)c2cccnc12 | -21.89
O=C(c1cncnc1)N1CCCC(c2nccs2)C1 (centres undefined) | 4.669
Cc1ccc(NC(=O)C2CSCN2C(=O)c2cnccn2)cc1C (centres undefined) | -4.531
COCCNc1ccc(CC2CCCNC2)cn1.Cl (centres undefined) | 0.7781
Cl.O=C1CC2(CCCNC2)C(=O)N1Cc1ccc(F)cc1 (centres undefined) | -12.09
Cc1ccc(CN2CCc3c(nc4cc(C5CC5)nn4c3O)C2)s1 | -23.82
c1cnnc(N2CCCC2CNCc2nc(-c3ccsc3)no2)c1 (centres undefined) | -22.54
[H][C@]12CC[C@]([H])(CN(c3cnccn3)C1)N(C(=O)Cc1sc(C)nc1C)C2 | -4.128
Cc1cc(CN2CCC(N(C)Cc3nnc(C4CC4)n3C)C2)on1 (centres undefined) | -10.17
COc1ccc(F)c(-c2ncccc2NC(=O)C(C)C)c1 | 20.56
[H][C@@]12C=C[C@@]([H])(C1)[C@H](C(=O)N1CCN(c3cc(C)c4ccccc4n3)CC1)C2 | 18.47
COc1ccc(C2(C(=O)NC3CCc4nccn4C3)CCCC2)cc1 (centres undefined) | 44.2
Cc1nn(C)c(N(C)C)c1CNCc1ccccc1Cn1cncn1 | 15.64
COCCc1noc(C2CCCN(c3ncnc4c3CCC4)C2)n1 (centres undefined) | -8.571
Cc1ccc2c(c1)OC(C)CN2C(=O)CCc1cscn1 (centres undefined) | -12.16
CCOc1cc([C@@H]2N[C@H](c3nccs3)Cc3ccsc32)ccc1OC | 9.707
CCOC(=O)NC(CNC(=O)c1ccccn1)CC(C)C (centres undefined) | -32.77
CN(C)C(=O)CCC1CCCN(Cc2cccc(-c3ccccn3)c2)C1 (centres undefined) | -34.94
CCN1CCN(C2CCN(C(C(N)=O)c3ccc(F)cc3)CC2)C1=O (centres undefined) | -39.99
COc1ccc(Br)c(C(=O)N2CCC(c3n[nH]c(C4CC4)n3)CC2)c1 | 19.08
Cc1cc(C)c(C(=O)NC(c2nnc3n2CCNCC3)C(C)C)c(C)c1 (centres undefined) | -19.21
CC(=O)N(C)Cc1cccc(NC(=O)N(C)CCc2cccs2)c1 | -9.221
Cc1nc(C)n(CC2CN(c3ncnc4[nH]ccc34)CCO2)n1 (centres undefined) | 20.56

Source: ChEMBL document CHEMBL3988442, “University of Dundee, Small-Polar-MMV Screening Library” (2021).